Reference: the supplement of paper PMC10849652
The other results are listed elsewhere or left out.

Experiments:
Assay in all cases: log2 fold change, soluble protein after heating vs DMSO (PISA); higher = thermal stabilisation; K562 lysate, 10 uM; active = over 0.2 and 3.5 SD of the protein, either way, in both replicates (recomputed)
[1] = compound: C1=CC=C(C=C1)[C@H](COC2=CC3=C(C=C2)NC(=O)N3)NC(=O)C4=CC=CN(C4=O)CC5=CC(=C(C=C5)F)F
How it was run: (§1)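 Values give the log-two fold change in thermal stability against solvent controls, from duplicates. Crude K562 extract at 1 mg/mL protein, made by dounce homogenisation in PBS pH 7.4 with 1 mM MgCl2, was treated with 10 μM compound for 30 min. After 3 min heating across 48°C-58°C, aliquots were pooled, adjusted to 0.5% NP-40 at 4°C and centrifuged at 21,000xg for 90 min. The supernatant was measured by TMTpro 16plex LC-MS/MS with channel sums equalised.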

[2] = compound: CC1=C(SC2=C1C(=N[C@H](C3=NN=C(N32)C)CC(=O)N)C4=CC=C(C=C4)Cl)C
How it was run: as §1

[3] = compound: CC1=C2C(=CC=C1)N=C(N(C2=O)C3=CC=CC=C3C)CN4C=NC5=C(N=CN=C54)N
How it was run: as §1

[4] = compound: Cc1sc2c(c1C)C(c1ccc(Cl)cc1)=N[C@@H](CC(=O)OC(C)(C)C)c1nnc(C)n1-2
How it was run: as §1

[5] = compound: c1ccc([C@@H]2C[C@H]2NC2CCNCC2)cc1
How it was run: as §1

erlotinib = compound: C#Cc1cccc(Nc2ncnc3cc(OCCOC)c(OCCOC)cc23)c1 [erlotinib]
How it was run: as §1

[6] = compound: C/C(=N\NC(=O)C1=CC(=CC=C1)S(=O)(=O)N2CCOCC2)/C3=C(C=CC(=C3)Cl)O
How it was run: as §1

[7] = compound: C1=CC(=CC=C1C2=NC3=C(N2)C=C(C=C3)C(=O)N)OC4=CC=C(C=C4)Cl
How it was run: as §1

[8] = compound: C1=CC2=C(C=CC(=C2)/C=C\3/C(=O)NC(=NCC4=CC=CS4)S3)N=C1
How it was run: as §1

[9] = compound: C1=CC=C(C=C1)C2=NC(=C(N2)C3=CC=NC=C3)C4=CC(=C(C=C4)Cl)O
How it was run: as §1

[10] = compound: C1=CC=C2C(=C1)C3=NNC4=CC=CC(=C43)C2=O
How it was run: as §1

[11] = compound: C1CCN(C1)C(=O)NC2=CC=CC(=C2)NC3=NC=C(C(=N3)NCCC4=CN=CN4)Br
How it was run: as §1

[12] = compound: C1CN(CCC1(CC2=CC=C(C=C2)Cl)N)C3=NC=NC4=C3C=CN4
How it was run: as §1

IRAK-1-4 Inhibitor I = compound: C1COCCN1CCN2C3=CC=CC=C3N=C2NC(=O)C4=CC(=CC=C4)[N+](=O)[O-] [IRAK-1-4 Inhibitor I]
How it was run: as §1

ralimetinib = compound: CC(C)(C)Cn1c(N)nc2ccc(-c3[nH]c(C(C)(C)C)nc3-c3ccc(F)cc3)nc21 [ralimetinib]
How it was run: as §1

[13] = compound: CC(C)(O)CC(=O)NCCn1ccc2ncnc(Nc3ccc(Oc4cccc(C(F)(F)F)c4)c(Cl)c3)c21
How it was run: as §1

[14] = compound: CC(C)C1=C2N=C(C=C(N2N=C1)NCC3=CC=CC=C3)NCCCCCCN
How it was run: as §1

[15] = compound: CC1=C(C=C(C=C1)NC(=O)C2=CC(=CC=C2)C(C)(C)C#N)NC3=CC4=C(C=C3)N=CN(C4=O)C
How it was run: as §1

[16] = compound: CC1=C(C=C(C=C1)NC(=O)C2=CC(=CC=C2)N(C)C)NC(=O)C3=CC=C(C=C3)O
How it was run: as §1

vemurafenib = compound: CCCS(=O)(=O)Nc1ccc(F)c(C(=O)c2c[nH]c3ncc(-c4ccc(Cl)cc4)cc23)c1F [vemurafenib]
How it was run: as §1

[17] = compound: CC[C@@H]1C(=O)N(C)c2cnc(Nc3ccc(C(=O)NC4CCN(C)CC4)cc3OC)nc2N1C1CCCC1
How it was run: as §1

[18] = compound: CCn1c(C(=O)N(C2CC2)C2CC2)cc2c3c(ncn3C)c(Nc3cc(C)n(C)n3)nc21
How it was run: as §1

sotrastaurin = compound: CN1CCN(c2nc(C3=C(c4c[nH]c5ccccc45)C(=O)NC3=O)c3ccccc3n2)CC1 [sotrastaurin]
How it was run: as §1

Tubastatin A = compound: CN1CCc2c(c3ccccc3n2Cc2ccc(C(=O)NO)cc2)C1 [Tubastatin A]
How it was run: as §1

[19] = compound: CNC(=O)C1=CC=CC=C1NC2=NC(=NC=C2Cl)NC3=C(C=C(C=C3)N4CCOCC4)OC
How it was run: as §1

defactinib = compound: CNC(=O)c1ccc(Nc2ncc(C(F)(F)F)c(NCc3nccnc3N(C)S(C)(=O)=O)n2)cc1 [defactinib]
How it was run: as §1

encorafenib = compound: COC(=O)N[C@@H](C)CNc1nccc(-c2cn(C(C)C)nc2-c2cc(Cl)cc(NS(C)(=O)=O)c2F)n1 [encorafenib]
How it was run: as §1

[20] = compound: COC(=O)[C@H](CCSC)NC(=O)C1=C(C=C(C=C1)NC[C@H](CS)N)C2=CC=CC=C2
How it was run: as §1

crizotinib = compound: C[C@@H](Oc1cc(-c2cnn(C3CCNCC3)c2)cnc1N)c1c(Cl)ccc(F)c1Cl [crizotinib]
How it was run: as §1

tozasertib = compound: Cc1cc(Nc2cc(N3CCN(C)CC3)nc(Sc3ccc(NC(=O)C4CC4)cc3)n2)n[nH]1 [tozasertib]
How it was run: as §1

doramapimod = compound: Cc1ccc(-n2nc(C(C)(C)C)cc2NC(=O)Nc2ccc(OCCN3CCOCC3)c3ccccc23)cc1 [doramapimod]
How it was run: as §1

quisinostat = compound: Cn1cc(CNCC2CCN(c3ncc(C(=O)NO)cn3)CC2)c2ccccc21 [quisinostat]
How it was run: as §1

[21] = compound: NC(=O)Nc1cc(-c2cccc(F)c2)sc1C(=O)N[C@H]1CCCNC1
How it was run: as §1

[22] = compound: NC1(c2ccc(-c3nc4ccn5c(=O)[nH]nc5c4cc3-c3ccccc3)cc2)CCC1
How it was run: as §1

[23] = compound: NCC(=O)Nc1ccc(-n2nc(C(F)(F)F)cc2-c2ccc3c(ccc4ccccc43)c2)cc1
How it was run: as §1

vorinostat = compound: O=C(CCCCCCC(=O)Nc1ccccc1)NO [vorinostat]
How it was run: as §1

silmitasertib = compound: O=C(O)c1ccc2c(c1)nc(Nc1cccc(Cl)c1)c1ccncc12 [silmitasertib]
How it was run: as §1

[24] = compound: O=C1NC(=O)C(c2cnc3ccccn23)=C1c1cn2c3c(cc(F)cc13)CN(C(=O)N1CCCCC1)CC2
How it was run: as §1

entospletinib = compound: c1cn2cc(-c3ccc4cn[nH]c4c3)nc(Nc3ccc(N4CCOCC4)cc3)c2n1 [entospletinib]
How it was run: as §1

Measured: log2 fold change

HNRNPM (UniProt M0QZM1)
inactive: [1] -0.093 | [2] -0.092 | [3] -0.01 | [4] 0.152

HPF1 (UniProt Q9NWY4)
inactive: [1] -0.013 | [2] 0.024 | [3] 0.031 | [4] 0.017 | [5] 0.038

HNRNPA3 (UniProt P51991)
inactive: [1] -0.027 | [2] 0.014 | [3] -0.021 | [4] 0.126 | [5] 0.068

HSD17B11 (UniProt Q8NBQ5)
inactive: [1] 0.087 | [2] 0.016 | [3] 0.005 | [4] -0.025 | [5] -0.009

HNRNPK isoform 2 (UniProt P61978)
inactive: [1] 0.013 | [2] 0.008 | [3] 0.002 | [4] 0.013 | [5] -0.016

HNRNPL, A0A3B3ITJ4
inactive: [1] -0.063 | [2] -0.011

HMMR isoform 3 (UniProt O75330)
inactive: [1] -0.01 | [2] -0.001 | [3] -0.002 | [4] 0.006 | [5] -0.001

HPCAL1 (UniProt P37235)
inactive: [1] 0.015 | [2] -0.05 | [3] -0.017 | [4] 0.006 | [5] -0.046

HPS5 (UniProt Q9UPZ3)
inactive: [1] -0.059 | [2] 0.12 | [3] 0.102 | [4] 0.047 | [5] -0.125

HERC2 (UniProt O95714)
inactive: [1] 0.005 | [2] -0.07 | [3] -0.011 | [4] 0.018 | [5] -0.037

HEATR5B (UniProt Q9P2D3)
inactive: [1] 0.008 | [2] 0.042 | [3] 0.028 | [4] 0.01 | [5] -0.027

HIVEP1 (UniProt P15822)
inactive: erlotinib -0.006 | [6] -0.183 | [7] 0.08 | [8] -0.065 | [9] 0.183 | [10] 0.024 | [11] -0.103 | [12] 0.14 | IRAK-1-4 Inhibitor I 0.102 | ralimetinib -0.106 | [13] 0.201 | [14] 0.041 | [15] 0.068 | [16] 0.01 | [3] -0.001 | vemurafenib 0.018 | [17] -0.106 | [18] -0.076 | sotrastaurin 0.073 | Tubastatin A -0.053 | [19] 0.045 | defactinib 0.004 | encorafenib -0.085 | [20] -0.016 | crizotinib -0.051 | tozasertib 0.098 | doramapimod 0.024 | quisinostat -0.067 | [21] 0.057 | [22] 0.023 | [23] -0.021 | vorinostat 0.025 | silmitasertib -0.046 | [24] -0.012 | entospletinib 0.158

HNRNPM (UniProt P52272)
inactive: [1] -0.099 | [2] 0.034 | [3] 0.041 | [4] -0.025 | [5] 0.014

2 entries drawn at random from those above:
HNRNPA3 (UniProt P51991)
inactive: [1] -0.027 | [2] 0.014 | [3] -0.021 | [4] 0.126 | [5] 0.068

HNRNPL, A0A3B3ITJ4
inactive: [1] -0.063 | [2] -0.011

The list continues.

HIST2H3A (UniProt Q71DI3)
inactive: [1] 0.003 | [2] 0.03 | [3] -0.04 | [4] 0.185 | [5] 0.047

HINT3 (UniProt Q9NQE9)
inactive: [1] 0.009 | [2] -0.026 | [3] 0.048 | [4] -0.005 | [5] 0.008

HSPA4 (UniProt P34932)
inactive: [1] 0.011 | [2] 0.013 | [3] 0.006 | [4] 0.012 | [5] -0.006

HNRNPK isoform 3 (UniProt P61978)
inactive: [1] -0.168 | [2] 0.047 | [3] -0.034 | [4] 0.005 | [5] -0.065

HNRNPH2 (UniProt P55795)
inactive: [1] 0.036 | [2] -0.007 | [3] 0 | [4] 0.105 | [5] -0.011

HEBP2 (UniProt Q9Y5Z4)
inactive: [1] -0.07 | [2] -0.058 | [3] 0.013 | [4] 0.002 | [5] 0.039

HNRNPDL (UniProt O14979)
inactive: [1] 0.033 | [2] 0.002 | [3] 0 | [4] 0.048 | [5] -0.071

HECTD4 (UniProt J3KPF0)
inactive: [1] -0.013 | [2] 0.023 | [3] 0.068 | [4] -0.03 | [5] 0.043
